Data published in patent publication US7208176B2, “Drug delivery device containing neuraminidase inhibitor and an H1 antagonist” (Osmotica Corp., priority 2001, dated 2007).

Assay: in vivo

Question: With `CC(C)(C(=O)O)c1ccc(C(O)CCCN2CCC(C(O)(c3ccccc3)c3ccccc3)CC2)cc1` (centres unmarked) [Fexofenadine] as the molecule, how does the Cmax (120 mg) read?
Answer: Its Cmax is 230 to 534 ng/mL.

Question: And the Tmax (po)?
Answer: The Tmax was 1.12 to 4 h.
